Data as given in PubChem BioAssay AID1259424 (University of Nebraska Medical Center, 2018).
Shown is an unselected part of about 14,000 reagents. 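Higher correlation or smaller distance means closer resemblance to KSR1 loss; control wells, including KSR1 knockdowns, recur on many plates.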 Not all columns of the deposit are shown. Not stated in the record: the time to read-out.

Assay: 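Find knockdowns that reproduce the expression shifts seen after KSR1 loss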 (primary screen)
Cell system: human HCT116 colon cancer cells
Reagent: siRNA pool against human genes, 50 nM
Read-out: 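Log2 levels of six mRNAs (branched-DNA multiplex), adjusted by two reference genes and the non-targeting median, then scored against the average KSR1 knockdown pattern as Pearson r and euclidean distance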
Direction: mean correlation with KSR1 profile and KSR1 correlation: higher = expression change more like KSR1 knockdown; mean distance from KSR1 profile: higher = expression change less like KSR1 knockdown

gene symbol	mean correlation with KSR1 profile	mean distance from KSR1 profile	KSR1 correlation, replicate 1
PIGN	-0.698	2.58	-0.456
TAS2R40	0.554	1.71	0.627
PCDHGB1	-0.129	2.81	0.0114
COL10A1	0.208	5.6	0.467
EIF1AY	-0.164	1.87	-0.199
SMARCAD1	0.218	1.82	0.0465
CSNK1G1	-0.377	3.21	-0.314
RNF103	0.256	2.01	0.298
PSME3IP1	0.607	2.25	0.483
MYH7	0.475	1.14	0.651
STXBP3	0.777	0.813	0.772
RASSF8	-0.408	3.46	-0.35
EIF1B	-0.169	1.68	-0.206
TIMCC	0.685	5.12	0.698
PPEF2	-0.335	3.12	-0.353
NCOA6	-0.517	1.91	-0.444
GRIN3A	0.4	2.09	0.364
AMELX	0.821	1.32	0.75
RPLP2	-0.592	2.1	-0.47
PPFIBP1	0.37	2.4	0.466
LAPTM4A	-0.496	2.98	-0.632
WEE1	-0.177	2.12	-0.129
RAB9BP1	-0.64	3.77	-0.647
PDE10A	-0.624	1.64	-0.64
FAM222B	-0.292	1.94	-0.239
TRIP13	0.428	1.47	0.335
GIT2	0.685	3.13	0.618
LAMB2	0.538	1.19	0.512
SLC4A4	0.0969	1.21	0.000964
BPNT2	-0.279	2.4	-0.398
GNRHR	0.56	1.99	0.506
NAA11	0.34	1.51	0.178
DLX4	-0.563	2.62	-0.305
RUNX3	0.439	1.36	0.557
CENPI	-0.285	2.53	-0.312
GRM7	0.279	1.98	0.318
AIRIM	-0.501	2.2	-0.324
RHPN2	0.256	3.65	0.0945
SH3PXD2A	0.0445	3.16	-0.54
MLF2	-0.668	1.49	-0.202
SLC16A7	0.112	1.06	0.118
STAC	0.196	1.71	0.0679
WHR1	0.321	1.98	0.486
CABYR	0.578	0.821	0.675
EVC2	-0.521	3.19	-0.459
MAGEA5P	-0.0338	2.58	-0.0565
PSEN2	-0.497	3.01	-0.544
EIF5B	-0.494	1.51	-0.432
CTSW	0.107	2.1	-0.364
ENAH	-0.529	1.99	-0.655

Sorted by “KSR1 correlation, replicate 1” (lowest first): 6 of the entries above.
gene symbol	mean correlation with KSR1 profile	mean distance from KSR1 profile	KSR1 correlation, replicate 1
NCOA6	-0.517	1.91	-0.444
PPEF2	-0.335	3.12	-0.353
RASSF8	-0.408	3.46	-0.35
EIF1B	-0.169	1.68	-0.206
GRIN3A	0.4	2.09	0.364
TIMCC	0.685	5.12	0.698
